At least one compound was matched to its structure with a doubt left.
System: male rats with cytopenia
Test: Hemostimulating activity: general analysis of the blood of male rats with cyclophosphan cytopenia
Type: in vivo

**Q.** With `CC(=O)N[C@@H](CSSC[C@H](NC(C)=O)C(=O)O)C(=O)O` [preparation 4, N-acetyl-L-cysteine disulfide] as the compound, how does the Reticulocytes (3 days after cyclophosphan 120 mg/kg) read?
**A.** 0.9.0 ± 0.2%

**Q.** And the Reticulocytes (7 days after cyclophosphan 120 mg/kg)?
**A.** 0.9.0 ± 0.2%

Source: patent US20130289108A1, “Palladium-Copper Catalysts for the Homogeneous Selective Oxidation of Thiol Groups” (priority 2011, published 2013)
